According to PubChem BioAssay AID248 (DTP/NCI, 2004):
The list shows only some results of the screen, not a fair sample: it is rich in T/C values a quarter to a half above the control, in often repeated tests (any T/C) and in doses without a T/C. Further doses and runs are listed elsewhere. T/C: endpoint of the treated group in % of that of the vehicle group. Some entries give survivors of the animals treated and no T/C: the source files T/C as zero there, which appears to mark a toxic dose or a test without result, not a measured value. Some survivor counts are full or nearly so, which does not show that the dose was tolerated: survival well below the control is almost never listed, so the zero probably covers shortened survival too. Counts of survivors are from the toxicity check (mostly the fifth day) where no day follows; animals may have died later. Schedule codes are those of the source, taken here to give the interval after Q, in days (D) or hours (H), and the number of doses after X. Some structures stand for samples that the source files as different forms (salt, stereo form or complex); doses refer to the form tested. Where survival is the endpoint, the PubChem record calls one and a half times the control and up active, and a quarter to a half above the control has no call in these data; cut-offs in other NCI protocols can differ. Some entries hold several experiments; the values are given in rising order. Some T/C values carry the count of animals alive at the toxicity check (mostly the fifth day); without a count, all were alive then.

System: L1210 leukemia ip in BDF1 mice, survival T/C
Assay: NCI In Vivo Anticancer Drug Screen. Data for tumor model L1210 Leukemia (intraperitoneal) in B6D2F1 (BDF1) mice
Conditions: T/C endpoint: mean survival time, higher T/C = longer survival
[1] = dose: 150.0 mg/kg/injection, schedule: Q01DX001 (ip), vehicle: saline
[2] = dose: 200.0 mg/kg/injection, schedule: Q04DX003 (ip), vehicle: saline
[3] = dose: 300.0 mg/kg/injection, schedule: Q01DX001 (ip), vehicle: saline
[4] = dose: 400.0 mg/kg/injection, schedule: Q04DX003 (ip), vehicle: saline
[5] = dose: 400.0 mg/kg/injection, schedule: Q04DX003 (ip), vehicle: Klucel (hydroxypropylcellulose) (HPC)

In the case of `CC(N)Cc1ccccc1` (centres undefined), the T/C (dose: 9.37 mg/kg/injection, schedule: Q04DX003 (ip), vehicle: saline) is reported as 136 % of control, the survivor count (dose: 74.96 mg/kg/injection, schedule: Q03HX024 (ip), vehicle: saline) is reported as 1 of 6 and the survivor count (dose: 75.0 mg/kg/injection, schedule: Q01DX001 (ip), vehicle: saline) is reported as 3 of 6. The survivor count (dose: 75.0 mg/kg/injection, schedule: Q01DX009 (ip), vehicle: saline) was 5 of 6, the survivor count (dose: 100.0 mg/kg/injection, schedule: Q01DX009 (ip), vehicle: saline) was 5 of 6 and the survivor count (dose: 149.92 mg/kg/injection, schedule: Q03HX024 (ip), vehicle: saline) was 0 of 6. For the same molecule, the survivor count [1] was 0 of 6, the survivor count (dose: 150.0 mg/kg/injection, schedule: Q04DX003 (ip), vehicle: saline) was 0 of 4 and the survivor count [2] was 0 of 4. The survivor count [3] was 0 of 6 and the survivor count [4] was 0 of 4.

In the case of `C(=C\c1ccccc1)/C[n+]1cccc2ccccc21`, the survivor count [1] is reported as 0 of 6 and the survivor count [3] is reported as 0 of 6.

In the case of `Brc1ccc[n+](Cc2ccccc2)c1`, the survivor count [1] is reported as 0 of 6 and the survivor count [3] is reported as 0 of 6.

In the case of `C=C(Br)CN(CC)C(C)=O`, the survivor count [2] is reported as 5 of 6 and the survivor count [4] is reported as 0 of 6.

With `CC1S(=O)(=O)CC(NC(=O)N(CCCl)N=O)CS1(=O)=O` (centres undefined) the T/C (dose: 2.4 mg/kg/injection, schedule: Q01DX001 (ip), vehicle: saline with Tween-80) was 131 and 142 % of control, the T/C (dose: 3.5 mg/kg/injection, schedule: Q01DX001 (ip), vehicle: saline with Tween-80) was 130 % of control and the survivor count (dose: 135.0 mg/kg/injection, schedule: Q01DX001 (ip), vehicle: saline with Tween-80) was 1 of 10.

In the case of `CN(C)CCCN=C(N)CCl`, the survivor count (dose: 200.0 mg/kg/injection, schedule: Q04DX002 (ip), vehicle: saline) is reported as 2 of 3 and the survivor count (dose: 400.0 mg/kg/injection, schedule: Q04DX002 (ip), vehicle: saline) is reported as 0 of 3.

In the case of `CCOC(=O)c1c(Cl)c(Cl)c(Cl)c(Cl)c1C(=O)O`, the survivor count (dose: 400.0 mg/kg/injection, schedule: Q01DX009 (ip), vehicle: saline with Tween-80) is reported as 2 of 6.

`Cc1[nH]nc(C(=O)N(C)C)c1N=NN(C)C` was tested, and the T/C [1] was 131 % of control [5 of 6 alive] and the survivor count [3] was 3 of 6.

With `CC1(C)Cc2cccc(OC(N)=O)c2O1` the survivor count (dose: 12.5 mg/kg/injection, schedule: Q04DX003 (ip), vehicle: Klucel (hydroxypropylcellulose) (HPC)) was 0 of 6, the survivor count (dose: 25.0 mg/kg/injection, schedule: Q04DX003 (ip), vehicle: Klucel (hydroxypropylcellulose) (HPC)) was 0 of 6 and the survivor count (dose: 50.0 mg/kg/injection, schedule: Q04DX003 (ip), vehicle: Klucel (hydroxypropylcellulose) (HPC)) was 0 of 6. The survivor count (dose: 100.0 mg/kg/injection, schedule: Q04DX003 (ip), vehicle: Klucel (hydroxypropylcellulose) (HPC)) was 0 of 6, the survivor count (dose: 200.0 mg/kg/injection, schedule: Q04DX003 (ip), vehicle: Klucel (hydroxypropylcellulose) (HPC)) was 0 of 6 and the survivor count [5] was 0 of 6.

In the case of `O=S1(=O)N=C(c2ccccc2)CC(c2ccccc2)N1` (centres undefined), the survivor count (dose: 400.0 mg/kg/injection, schedule: Q04DX003 (ip), vehicle: saline with Tween-80) is reported as 3 of 6.

With `O=C1C2=C(CCC2)c2ccccc21` the survivor count (dose: 400.0 mg/kg/injection, schedule: Q01DX001 (ip), vehicle: saline) was 3 of 6.

In the case of `CCCCCCCCCCCC(=O)NC(=S)Nc1cccc(F)c1`, the survivor count [5] is reported as 0 of 6.
